Article PMC11014456
No constants are given. Whether binding was seen depends on the method and setting. Binding seen in cells or lysates may run through a third protein. Some binding calls cover weakened binding; strength is not graded here.

Columns and labels:
[1] = target: NEDD8 (rat (endogenous in primary rat Schwann cells)) (UniProt Q71UE8); assay: co-IP; endogenous proteins from primary rat Schwann cells treated with db cAMP, NP-40 lysis buffer; anti-NEDD8 immunoprecipitate blotted for EGR2 and anti-EGR2 immunoprecipitate blotted for NEDD8; antibodies cross-linked to beads, overnight at 4°C; cells with or without MLN4924
[2] = target: early growth response 2 (EGR2) (rat (endogenous in primary rat Schwann cells)) (UniProt P51774); assay: co-IP; as a3, anti-EGR2 immunoprecipitate blotted for NEDD8, cells treated with db cAMP and MLN4924
[3] = target: early growth response 2 (EGR2) (rat (endogenous in primary rat Schwann cells)) (UniProt P51774); assay: co-IP; endogenous proteins from primary rat Schwann cells treated with db cAMP, NP-40 lysis buffer; anti-NEDD8 immunoprecipitate blotted for EGR2 and anti-EGR2 immunoprecipitate blotted for NEDD8; antibodies cross-linked to beads, overnight at 4°C; cells with or without MLN4924

## early growth response 2 (EGR2) (from UniProt P51774 1-470)
[1]
  binding: binds

## NEDD8 (from UniProt Q71UE8 1-76)
[2]
  binding: no binding (condition: cells treated with MLN4924)
[3]
  binding: binds
